Test results from PubChem BioAssay AID2685 (National Center for Advancing Translational Sciences (NCATS), 2010).
The list shows a part of the results. Shown are side measurements of this screen, not its main read-out; they come without a call. The list favours compounds with an active or inconclusive main result. The note in brackets gives the kind of curve behind each potency; many fits are weak.

Assay: qHTS Assay for Lipid Storage Modulators in Drosophila S3 Cells;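 for cell number change: cells counted by Cell Tracker Red CMTPX staining in the red channel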
Conditions: BODIPY lipid droplet fluorescence, 18-24 h; for cell number change: measured here: cell count max response, cells fed with added oleic acid
In short: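 Laser-scanning cytometry quantifies lipid droplet accumulation (500–530 nm total intensity; droplet/cell object ratio) in oleic acid-fed (400 uM added) Drosophila S3 cells treated with a concentration series. 20 uM Triacsin C defined 100% inhibition.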

[1] = measured here: lipid fluorescence (Fed channel) AC50, cells fed with added oleic acid
[2] = measured here: cell number channel AC50, cells fed with added oleic acid

Structure (SMILES) | cell number change | AC50 [1] | AC50 [2]
CC1CCCN(C(=O)C2CCN(S(=O)(=O)c3cccc4nsnc34)CC2)C1 (centres undefined) | 22.6% | 3.26 µM [falling, single point] | 
CCOC(=O)CNC(=O)CNC(=O)Cn1ccc2ccccc2c1=O | -79.9% | 1.16 µM [falling, full curve, poor fit] | 18.4 µM [falling, partial curve, poor fit]
Cc1ccc(C(C(=O)NC2CCCCC2)N(Cc2ccco2)C(=O)Cn2cnc3ccccc32)cc1 (centres undefined) | -25.7% | 29.1 µM [falling, single point] | 
COC(=O)/C=C1\SC(N)=NC1=O | -4.63% |  | 6.51 µM [falling, single point]
C=CCOc1ccc(/C=C/C(=O)OCC(=O)NCCc2ccccc2)cc1 | -31.6% |  | 29.1 µM [falling, single point]
CCOc1ccc(C(=O)Nc2ccc(N3CCN(C)CC3)cc2)cc1[N+](=O)[O-] |  | 0.206 µM [rising, full curve, poor fit] | 
Cc1ccc(-c2csc3ncn(/N=C/N(C)C)c(=O)c23)o1 | 20.6% | 14.6 µM [rising, partial curve] | 
CN(C)C(=O)CSc1nnc(CCCCCNC(=O)OC(C)(C)C)o1 | 6.81% | 0.731 µM [falling, single point] | 
COc1ccc(CNC(=O)CN(C(=O)CCC(=O)Nc2ccccn2)c2cc(C)ccc2C)cc1 | 7.62% |  | 
Cc1sc2ncn(CC(=O)N3CCN(c4ccccc4F)CC3)c(=O)c2c1S(=O)(=O)N1CCOCC1 | 20.8% | 0.58 µM [rising, single point] | 
Cc1c(Cc2ccc3c(c2)OCO3)sc(NC(=O)c2cccc3ccccc23)c1C(N)=O | 17.4% | 0.461 µM [rising, full curve] | 
CCCCCCOc1cccc(N)c1 | 8.66% | 0.517 µM [falling, full curve, poor fit] | 
CN1C(=O)N(CC(=O)Nc2ccc(C(F)(F)F)cc2)C(=O)C12CCCCC2 | 9.64% |  | 
COc1ccccc1C(=O)NCCNC(=O)c1ccc(C)nc1 | 24.4% | 29.1 µM [falling, single point] | 
Cc1ccc(S(=O)(=O)CCC(=O)Nc2ccccc2N2CCCC2)cc1 | 18.2% | 0.082 µM [rising, full curve, poor fit] | 
CN(c1ccc(O)cc1)S(=O)(=O)c1ccc2ccccc2c1 | 13.4% | 29.1 µM [falling, single point] | 
Cc1ccc(C=Nc2ccc(N(C)C)cc2)o1 | -17.9% | 32.6 µM [falling, single point] | 
COc1ccc(Nc2cc(Nc3ccccc3)ncn2)cc1 | 8.33% |  | 
Cc1cc(C(C)(C)C)cc(S(=O)(=O)Nc2cccc(C(=O)O)c2)c1C | -50.4% |  | 29.1 µM [falling, single point]
CCCCOc1ccc(-c2nnn(CCC(=O)N3CCOCC3)n2)cc1 | -8.52% |  | 

Part of the list above, reformatted.
Structure (SMILES)	cell number change	AC50 [1]	AC50 [2]
Cc1ccc(-c2csc3ncn(/N=C/N(C)C)c(=O)c23)o1	20.6%	14.6 µM [rising, partial curve]	
CN(C)C(=O)CSc1nnc(CCCCCNC(=O)OC(C)(C)C)o1	6.81%	0.731 µM [falling, single point]	
COc1ccc(CNC(=O)CN(C(=O)CCC(=O)Nc2ccccn2)c2cc(C)ccc2C)cc1	7.62%		
Cc1sc2ncn(CC(=O)N3CCN(c4ccccc4F)CC3)c(=O)c2c1S(=O)(=O)N1CCOCC1	20.8%	0.58 µM [rising, single point]	
Cc1c(Cc2ccc3c(c2)OCO3)sc(NC(=O)c2cccc3ccccc23)c1C(N)=O	17.4%	0.461 µM [rising, full curve]	

The list continues.

Structure (SMILES) | cell number change | AC50 [1] | AC50 [2]
COc1cc2c(cc1OC)-c1cc(OCc3ccccc3Cl)nc(=O)n1CC2 | -8.56% | 0.13 µM [rising, full curve, poor fit] | 0.206 µM [rising, full curve, poor fit]
Cc1ccc2cc3c(nc2c1)N(Cc1ccco1)CC3 |  |  | 6.51 µM [rising, single point]
Cc1noc(C)c1C(=O)Nc1nc2ccc(F)cc2s1 | 9.66% | 2.59 µM [rising, single point] | 0.58 µM [rising, partial curve, poor fit]
COc1ccccc1CCNC(=O)c1cnccn1 | 27.7% | 4.11 µM [rising, partial curve] | 2.31 µM [rising, full curve, poor fit]
O=C(NC(=S)N1CCCCC1CO)C12CC3CC(CC(C3)C1)C2 (centres undefined) | -28.7% |  | 
Cc1ccc(CSc2nnc(C)c(=O)n2N)cc1 | 21% | 14.6 µM [rising, partial curve, poor fit] | 
Cc1ccc(CNC(=O)COC(=O)c2cncc(Br)c2)cc1 | -20.1% | 0.00517 µM [falling, full curve, poor fit] | 0.00651 µM [falling, full curve, poor fit]
CN1CCN(C(=O)c2cccc(-c3cc(O)c4ncccc4c3)c2)CC1 | 16.8% | 20.6 µM [rising, single point] | 
Cc1ccc(NC(=S)N2CCN(C(=O)c3ccccc3)CC2)c(C)c1 | -25.6% | 1.64 µM [falling, full curve, poor fit] | 0.58 µM [falling, partial curve, poor fit]
Cc1ccnc(NC(=O)c2ccc(COc3ccc(Cl)cc3)o2)c1 | -4.63% |  | 
CN(CC(=O)O/N=C(\N)c1ccc(Br)cc1)S(=O)(=O)c1ccccc1 | 35.5% | 0.112 µM [rising, full curve, poor fit] | 0.355 µM [rising, full curve, poor fit]
S=C(Nc1ccccc1)N1CCN(C(=S)c2ccccc2)CC1 | 16.5% | 14.1 µM [rising, single point] | 
O=C(c1ccccc1Cc1ccccc1)N1CCN(S(=O)(=O)c2ccccc2Br)CC1 | 31.4% |  | 13 µM [rising, single point]
O=C(NCC1COc2ccccc2O1)C1CCC(CNc2c(N3CCCCC3)c(=O)c2=O)CC1 (centres undefined) | -3.85% |  | 
CCOC(=O)c1c(NC(=O)Cn2ccsc2=N)sc(C)c1C | 31.6% | 6.51 µM [rising, full curve] | 0.184 µM [rising, full curve, poor fit]
Cc1ccc(C)c(Cn2nnc3c(=O)[nH]c(C4CCCN(C(=O)C5CCCCC5)C4)nc32)c1 (centres undefined) | -49.3% | 0.731 µM [rising, full curve] | 29.1 µM [falling, single point]
CCc1nc(C)cc(N)c1OCc1ccccc1 | -10.7% |  | 0.00461 µM [falling, full curve, poor fit]
CCOC(=O)N1CCN(C(=O)Cn2nc(C)c3sc4ccccc4c3c2=O)CC1 | -5.87% | 29.1 µM [rising, single point] | 
COCC(=O)Nc1nnc(-c2ccc(C(C)(C)C)cc2)s1 | 7.6% | 0.651 µM [falling, full curve] | 0.731 µM [falling, full curve]
O=C(Nn1cnnc1)c1cc(-c2cccc(Br)c2)nc2ccccc12 | 26.3% | 8.2 µM [rising, partial curve, poor fit] | 

Structure (SMILES) | cell number change | AC50 [1] | AC50 [2]
CC(C(=O)Nc1ncc2c(n1)CC(C)(C)CC2=O)N1C(=O)c2ccccc2C1=O (centres undefined) | 2.15% | 0.0731 µM [falling, full curve, poor fit] | 
CSc1ncc(Cl)c(C(=O)Nc2cc(C)ccc2C)n1 | 31.1% | 4.11 µM [rising, partial curve, poor fit] | 
CCC(=O)Nc1nc2ccc3sc(C)nc3c2s1 | -24.6% | 0.164 µM [falling, full curve, poor fit] | 
CCOc1ccc(CCNC(=O)C2CCCN(c3nn4c(=O)cc(C)nc4s3)C2)cc1OCC (centres undefined) | 4.26% | 18.4 µM [rising, single point] | 
C/C(=N\N=c1/sc2ccccc2n1C)c1ccc(N2CCOCC2)cc1 |  | 6.51 µM [rising, single point] | 2.91 µM [rising, single point]
CCOC(=O)Cc1csc(NC(=S)NC(=O)c2ccc([N+](=O)[O-])cc2)n1 | 34% |  | 11.6 µM [rising, partial curve]
O=C(Nc1ccccn1)[C@@H]1CCC(=O)N1C(=O)OCc1ccccc1 | 10.5% | 29.1 µM [rising, single point] | 
COc1ccc(CN2CCN(C(=O)c3ccc(F)cc3)CC2)c(OC)c1 | 8.8% | 0.13 µM [falling, full curve, poor fit] | 
COc1cccc(CNn2c(-c3cccc(C)c3)nc3ccccc3c2=O)c1 |  | 10.3 µM [rising, partial curve] | 0.651 µM [rising, full curve]
CCCS(=O)(=O)N1CCCC(C(=O)NCCN(Cc2ccccc2)C(C)C)C1 (centres undefined) | 23.3% | 4.61 µM [rising, full curve, poor fit] | 
Cc1csc(NC(=O)CN2C(=O)c3ccccc3C2=O)c1C(N)=O | 7.73% | 0.731 µM [rising, single point] | 0.731 µM [rising, single point]
COc1ccc(-c2oc3ncnc(NCCCO)c3c2-c2ccc(OC)cc2)cc1 | -45.9% |  | 2.31 µM [falling, partial curve]
CCOP(=O)(c1ccccc1)C1(C#N)CCCC1 (centres undefined) | 5.76% |  | 
O=C(NNC(=O)C1CCC1)c1cccc(Cl)c1 | -12.7% | 0.184 µM [falling, full curve, poor fit] | 
O=C(NC(Cc1ccccc1)C(=O)Oc1ccc2c(C(F)(F)F)cc(=O)oc2c1)OCc1ccccc1 (centres undefined) | -2.9% | 29.1 µM [rising, single point] | 6.51 µM [rising, single point]
C=CCn1ccc2c([N+](=O)[O-])cccc2c1=O |  |  | 0.82 µM [rising, single point]
O=C(COC(=O)CCCN1C(=O)c2ccccc2C1=O)Nc1ncc(Cl)cc1Cl | 2.94% |  | 
CC(=C\c1ccco1)/C=C(\C#N)C(=O)NCCc1c[nH]c2ccccc12 | -7.04% | 7.31 µM [falling, partial curve] | 
CC(C)(C)c1ccc(NC(=O)C2=CC=CN3CCS(=O)(=O)N=C23)cc1 | 0.137% | 0.00411 µM [rising, full curve, poor fit] | 0.0116 µM [rising, full curve, poor fit]
